One assay deals with Hu P-cadherin-Fc (human) (UniProt P22223). As to the kind of experiment: ELISA. For orientation: In an ELISA, binding on a coated surface is turned into a signal by an enzyme label.
Assay [1] addresses human P-cadherin expressed on the cell surface (human) (UniProt P22223). As to the kind of experiment: cell ELISA, H1650 cells.

The chains behind the UniProt entries cited, without tags or fusion partners. Residues count along the entry.
UniProt P22223, residues 108-654: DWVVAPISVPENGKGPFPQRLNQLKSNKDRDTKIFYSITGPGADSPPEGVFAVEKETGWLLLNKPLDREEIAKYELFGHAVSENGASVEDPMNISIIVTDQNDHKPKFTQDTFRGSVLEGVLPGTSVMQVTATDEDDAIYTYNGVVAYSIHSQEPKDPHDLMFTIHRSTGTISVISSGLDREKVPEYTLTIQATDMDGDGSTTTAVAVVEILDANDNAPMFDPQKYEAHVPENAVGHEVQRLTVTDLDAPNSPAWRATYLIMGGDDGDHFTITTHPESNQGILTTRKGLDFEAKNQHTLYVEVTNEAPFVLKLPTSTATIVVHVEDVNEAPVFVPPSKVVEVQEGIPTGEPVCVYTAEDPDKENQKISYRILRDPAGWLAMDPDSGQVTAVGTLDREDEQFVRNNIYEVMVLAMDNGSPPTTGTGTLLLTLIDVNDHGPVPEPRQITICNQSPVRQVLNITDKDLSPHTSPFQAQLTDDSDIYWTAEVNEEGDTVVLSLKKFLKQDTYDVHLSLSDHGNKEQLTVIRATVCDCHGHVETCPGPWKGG

Results are given in words; binding and its absence hold for the method and conditions named. Some entries that bind do so weakly or less than the wild type.

B1: 35 EK-DART (bispecific antibody)
chain 1: QSVLTQPPSVSAAPGQKVTISCSGSSSNIGNNYVSWYQQLPGTAPKLLIYDNNKRPSGIPDRFSGSKSGTSATLGITGLQTGDEADYYCGTWDSSLSAVVFGGGTKLTVLGGGSGGGGEVQLVESGGGLVQPGGSLRLSCAASGFTFNTYAMNWVRQAPGKGLEWVARIRSKYNNYATYYADSVKDRFTISRDDSKNSLYLQMNSLKTEDTAVYYCVRHGNFGNSYVSWFAYWGQGTLVTVSSGGCGGGKVAALKEKVAALKEKVAALKEKVAALKE
chain 2: QAVVTQEPSLTVSPGGTVTLTCRSSTGAVTTSNYANWVQQKPGQAPRGLIGGTNKRAPWTPARFSGSLLGGKAALTITGAQAEDEADYYCALWYSNLWVFGGGTKLTVLGGGGSGGGGEVQLVQSGAEVKKPGASVKVSCKASGYTFTSYGISWVRQAPGQGLEWMGWISAYNGNTNYAQKLQGRVTMTTDTSTSTAYMELRSLRSDDTAVYYCATIDTASAFDIWGQGTMVTVSSGGCGGGEVAALEKEVAALEKEVAALEKEVAALEK
For B1, the binding entry (in the assay with Hu P-cadherin-Fc (human); in assay [1]) was “binds” each time.

Source of the values: patent US20160002357A1.
